Measurements reported in PubChem BioAssay AID602196 (INSERM, 2012).
In all, the deposit lists about 23,000 reagents; this is a random part of them. 455 of them (2%) were called active. 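Active includes both protection and sensitisation; some change values fall well beyond the stated -50 to +50 range.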 The numbers tell different reagents against one gene apart. Further read-outs or replicates are left out here. Not stated in the record: the amount of reagent.

- Aim: 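Modifiers of cisplatin sensitivity in A549 cells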
- System: human A549 lung cancer cells
- Reagents: siRNA pair against human genes
- Time to read-out: 48 h transfection before cisplatin; time from cisplatin to read-out not stated
- Conditions: cisplatin at a dose killing half of control-siRNA cells; exact dose and duration not given
- Read-out: 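Cisplatin cell death as a shift from the 50% death seen with control siRNA; siRNAs toxic or growth-blocking alone scored 0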
- Reading the numbers: two-siRNA summed score (-2 to +2): higher = both siRNAs protect from cisplatin killing; -2 means both sensitise; mean protection from cisplatin (shift in death): higher = protection from cisplatin killing
- Rule for the call: 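siRNAs harmful alone (LDH or WST-1) get 0; others get +1 for less and -1 for more cisplatin killing; genes are active when the two siRNAs give the same sign, summing to ±2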
- Calls: active = both siRNAs shift cisplatin killing the same way; inactive = no consistent shift, or siRNA harmful alone

gene symbol,reagent no.,two-siRNA summed score (-2 to +2),mean protection from cisplatin (shift in death) (%),call
ARHGEF38 (GeneID 54848),1,0,6.1,inactive
HDLBP (GeneID 3069),1,2,24.4,active
RAX (GeneID 30062),1,0,-5.5,inactive
LOC441994,1,0,0.3,inactive
SRSF10 (GeneID 10772),1,1,14.6,inactive
TREML4 (GeneID 285852),1,1,18.4,inactive
SCAPER (GeneID 49855),1,0,3.4,inactive
LOC388019,1,0,7.3,inactive
MIDN (GeneID 90007),1,-1,-2.2,inactive
FKRP (GeneID 79147),1,0,3.9,inactive
SLC26A10P (GeneID 65012),1,0,5.3,inactive
PNKD (GeneID 25953),1,1,10.4,inactive
OR10P1 (GeneID 121130),1,1,14.3,inactive
P2RY10 (GeneID 27334),1,0,10.7,inactive
ZMPSTE24 (GeneID 10269),1,-1,-12.1,inactive
RPS6KA5 (GeneID 9252),1,0,-1.7,inactive
OR2L8 (GeneID 391190),1,1,13,inactive
CLPP (GeneID 8192),1,-2,-22.3,active
NDUFAF2 (GeneID 91942),1,1,10,inactive
DHX16 (GeneID 8449),1,1,0.5,inactive
DRG2 (GeneID 1819),1,-1,-2.9,inactive
RAD9B (GeneID 144715),1,0,1,inactive
LOC440102,1,1,12.2,inactive
NUP210 (GeneID 23225),1,0,3.1,inactive
SKAP1 (GeneID 8631),1,0,-2.4,inactive
OGN (GeneID 4969),1,0,0.1,inactive
EPB42 (GeneID 2038),1,1,14.2,inactive
LOC387652,1,0,4.7,inactive
PAK5 (GeneID 57144),1,1,9.6,inactive
OR10A6 (GeneID 390093),1,1,5.6,inactive
AIP (GeneID 9049),1,-1,-15.1,inactive
PSMB8 (GeneID 5696),1,-1,-8.7,inactive
SNW1 (GeneID 22938),1,0,-14.3,inactive
SNW1 (GeneID 22938),2,1,9,inactive
PDZRN4 (GeneID 29951),1,0,2.7,inactive
CFAP298 (GeneID 56683),1,0,6.6,inactive
SLC2A6 (GeneID 11182),1,0,4.7,inactive
ALPK1 (GeneID 80216),1,1,9.7,inactive
OR10G3 (GeneID 26533),1,0,9.2,inactive

Copied from the list:
Result for MIDN (GeneID 90007) in “two-siRNA summed score (-2 to +2)”: -1
For “mean protection from cisplatin (shift in death) (%)”, RAD9B (GeneID 144715) reads 1
ARHGEF38 (GeneID 54848), two-siRNA summed score (-2 to +2) → 0
Entry for NUP210 (GeneID 23225) under “call”: inactive
Under “call”, SLC26A10P (GeneID 65012) reads inactive
Entry for CLPP (GeneID 8192) in “two-siRNA summed score (-2 to +2)”: -2
